In the supplement of paper PMC6411743:
± gives the standard deviation of the averaged measurements. The list shows a part of the results, in another mix than the full data. This is one part of the list.

By UniProt entry, the sequences of proteins in these tests, tags left out. Where a name states a change or a piece, a line headed by the entry shows the natural chain unless it says otherwise.
UniProt O14979: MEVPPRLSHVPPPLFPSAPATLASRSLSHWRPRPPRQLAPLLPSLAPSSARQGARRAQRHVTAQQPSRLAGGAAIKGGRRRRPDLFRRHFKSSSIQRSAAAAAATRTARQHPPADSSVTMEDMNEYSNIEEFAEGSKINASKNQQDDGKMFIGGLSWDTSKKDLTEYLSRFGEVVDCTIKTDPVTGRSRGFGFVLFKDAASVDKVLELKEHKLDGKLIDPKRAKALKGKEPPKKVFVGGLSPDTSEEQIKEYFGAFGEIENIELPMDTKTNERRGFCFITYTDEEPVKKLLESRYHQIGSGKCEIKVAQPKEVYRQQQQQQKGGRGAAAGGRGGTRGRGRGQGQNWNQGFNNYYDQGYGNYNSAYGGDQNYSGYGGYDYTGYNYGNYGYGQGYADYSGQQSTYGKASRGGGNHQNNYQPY
UniProt Q9UNQ2: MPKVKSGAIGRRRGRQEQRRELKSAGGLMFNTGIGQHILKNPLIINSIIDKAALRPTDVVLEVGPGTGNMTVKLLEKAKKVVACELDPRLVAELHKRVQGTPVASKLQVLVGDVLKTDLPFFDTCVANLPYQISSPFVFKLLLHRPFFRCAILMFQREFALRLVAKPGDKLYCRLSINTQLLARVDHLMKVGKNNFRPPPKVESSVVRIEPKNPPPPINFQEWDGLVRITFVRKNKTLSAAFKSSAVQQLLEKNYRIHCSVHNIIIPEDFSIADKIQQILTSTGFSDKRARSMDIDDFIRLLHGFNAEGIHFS
UniProt P28715: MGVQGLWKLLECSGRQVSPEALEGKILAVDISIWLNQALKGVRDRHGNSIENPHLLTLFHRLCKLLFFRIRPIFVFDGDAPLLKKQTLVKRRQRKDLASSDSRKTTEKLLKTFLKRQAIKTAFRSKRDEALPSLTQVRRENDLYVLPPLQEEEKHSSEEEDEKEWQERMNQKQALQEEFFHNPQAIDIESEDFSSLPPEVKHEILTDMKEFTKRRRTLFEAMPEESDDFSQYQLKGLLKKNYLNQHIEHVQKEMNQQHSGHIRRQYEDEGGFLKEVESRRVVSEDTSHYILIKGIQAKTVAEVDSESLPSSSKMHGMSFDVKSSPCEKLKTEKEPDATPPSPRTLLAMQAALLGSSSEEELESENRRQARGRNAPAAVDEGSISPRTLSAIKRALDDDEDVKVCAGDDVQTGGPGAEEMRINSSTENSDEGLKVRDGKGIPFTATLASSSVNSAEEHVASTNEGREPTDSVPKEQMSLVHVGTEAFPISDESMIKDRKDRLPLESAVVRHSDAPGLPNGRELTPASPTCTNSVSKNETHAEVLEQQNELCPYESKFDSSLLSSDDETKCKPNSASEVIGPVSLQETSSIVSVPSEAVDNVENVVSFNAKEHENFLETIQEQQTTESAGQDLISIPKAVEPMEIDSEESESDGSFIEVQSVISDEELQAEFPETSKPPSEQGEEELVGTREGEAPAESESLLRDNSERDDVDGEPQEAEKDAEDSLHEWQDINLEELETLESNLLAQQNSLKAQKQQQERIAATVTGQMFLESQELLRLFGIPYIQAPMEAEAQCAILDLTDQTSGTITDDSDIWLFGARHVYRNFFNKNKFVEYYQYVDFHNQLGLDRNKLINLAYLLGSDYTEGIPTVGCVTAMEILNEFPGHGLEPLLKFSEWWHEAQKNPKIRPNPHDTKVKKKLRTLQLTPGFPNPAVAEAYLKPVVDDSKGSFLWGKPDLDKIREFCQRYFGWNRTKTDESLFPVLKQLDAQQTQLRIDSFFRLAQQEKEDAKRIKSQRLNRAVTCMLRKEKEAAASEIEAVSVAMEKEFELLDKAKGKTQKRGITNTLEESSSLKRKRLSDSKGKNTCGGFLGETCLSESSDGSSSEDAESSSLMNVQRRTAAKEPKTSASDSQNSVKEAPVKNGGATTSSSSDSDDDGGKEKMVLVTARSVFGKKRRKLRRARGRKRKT
UniProt Q9H8E8: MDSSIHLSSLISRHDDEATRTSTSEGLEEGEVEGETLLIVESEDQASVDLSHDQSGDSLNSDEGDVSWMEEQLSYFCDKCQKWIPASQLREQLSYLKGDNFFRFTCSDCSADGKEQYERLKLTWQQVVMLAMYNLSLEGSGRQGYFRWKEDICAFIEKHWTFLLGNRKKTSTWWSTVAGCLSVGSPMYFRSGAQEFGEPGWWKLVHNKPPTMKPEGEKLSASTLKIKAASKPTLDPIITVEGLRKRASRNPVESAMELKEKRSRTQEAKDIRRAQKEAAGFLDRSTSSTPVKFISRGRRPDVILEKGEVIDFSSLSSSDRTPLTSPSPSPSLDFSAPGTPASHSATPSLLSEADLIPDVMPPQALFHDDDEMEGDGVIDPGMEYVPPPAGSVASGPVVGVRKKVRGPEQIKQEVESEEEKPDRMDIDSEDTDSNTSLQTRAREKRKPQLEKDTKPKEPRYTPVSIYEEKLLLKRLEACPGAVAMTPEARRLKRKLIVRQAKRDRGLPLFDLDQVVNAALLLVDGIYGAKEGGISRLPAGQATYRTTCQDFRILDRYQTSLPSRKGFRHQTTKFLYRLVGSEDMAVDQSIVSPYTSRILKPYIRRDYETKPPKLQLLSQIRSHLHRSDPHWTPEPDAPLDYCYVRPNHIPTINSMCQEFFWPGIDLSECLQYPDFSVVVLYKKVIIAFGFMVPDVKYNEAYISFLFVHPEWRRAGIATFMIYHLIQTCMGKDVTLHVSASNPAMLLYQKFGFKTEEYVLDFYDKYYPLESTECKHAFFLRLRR
UniProt Q8NB49: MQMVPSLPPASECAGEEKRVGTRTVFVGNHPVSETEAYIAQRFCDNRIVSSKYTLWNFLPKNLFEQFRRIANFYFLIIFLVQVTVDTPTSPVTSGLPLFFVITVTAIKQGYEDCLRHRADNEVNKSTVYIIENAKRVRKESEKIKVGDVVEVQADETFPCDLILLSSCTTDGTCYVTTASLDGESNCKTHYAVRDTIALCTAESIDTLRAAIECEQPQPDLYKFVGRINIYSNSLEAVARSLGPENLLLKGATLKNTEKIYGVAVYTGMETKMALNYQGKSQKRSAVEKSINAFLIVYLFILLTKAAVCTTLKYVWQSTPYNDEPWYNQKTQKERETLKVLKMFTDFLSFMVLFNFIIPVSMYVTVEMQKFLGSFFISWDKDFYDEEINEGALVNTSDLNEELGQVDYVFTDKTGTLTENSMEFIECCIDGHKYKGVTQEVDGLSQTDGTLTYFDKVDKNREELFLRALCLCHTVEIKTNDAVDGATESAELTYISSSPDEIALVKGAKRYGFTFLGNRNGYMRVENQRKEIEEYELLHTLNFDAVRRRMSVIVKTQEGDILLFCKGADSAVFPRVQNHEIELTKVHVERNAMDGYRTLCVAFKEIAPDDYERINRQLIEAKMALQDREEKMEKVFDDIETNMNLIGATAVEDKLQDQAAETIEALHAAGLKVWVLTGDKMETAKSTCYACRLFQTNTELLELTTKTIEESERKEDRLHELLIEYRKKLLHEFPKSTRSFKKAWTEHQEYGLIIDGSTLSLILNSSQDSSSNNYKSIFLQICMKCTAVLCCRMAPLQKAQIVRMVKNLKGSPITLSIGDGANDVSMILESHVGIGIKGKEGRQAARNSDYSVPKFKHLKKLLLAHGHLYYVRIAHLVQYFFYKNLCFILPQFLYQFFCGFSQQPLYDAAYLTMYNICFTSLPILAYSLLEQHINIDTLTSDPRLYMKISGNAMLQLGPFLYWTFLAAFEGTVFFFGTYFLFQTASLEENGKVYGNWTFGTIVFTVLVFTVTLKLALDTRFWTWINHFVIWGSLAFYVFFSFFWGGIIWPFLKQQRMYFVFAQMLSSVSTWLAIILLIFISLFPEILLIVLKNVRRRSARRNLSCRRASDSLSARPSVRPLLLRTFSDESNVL
UniProt Q8IWB9: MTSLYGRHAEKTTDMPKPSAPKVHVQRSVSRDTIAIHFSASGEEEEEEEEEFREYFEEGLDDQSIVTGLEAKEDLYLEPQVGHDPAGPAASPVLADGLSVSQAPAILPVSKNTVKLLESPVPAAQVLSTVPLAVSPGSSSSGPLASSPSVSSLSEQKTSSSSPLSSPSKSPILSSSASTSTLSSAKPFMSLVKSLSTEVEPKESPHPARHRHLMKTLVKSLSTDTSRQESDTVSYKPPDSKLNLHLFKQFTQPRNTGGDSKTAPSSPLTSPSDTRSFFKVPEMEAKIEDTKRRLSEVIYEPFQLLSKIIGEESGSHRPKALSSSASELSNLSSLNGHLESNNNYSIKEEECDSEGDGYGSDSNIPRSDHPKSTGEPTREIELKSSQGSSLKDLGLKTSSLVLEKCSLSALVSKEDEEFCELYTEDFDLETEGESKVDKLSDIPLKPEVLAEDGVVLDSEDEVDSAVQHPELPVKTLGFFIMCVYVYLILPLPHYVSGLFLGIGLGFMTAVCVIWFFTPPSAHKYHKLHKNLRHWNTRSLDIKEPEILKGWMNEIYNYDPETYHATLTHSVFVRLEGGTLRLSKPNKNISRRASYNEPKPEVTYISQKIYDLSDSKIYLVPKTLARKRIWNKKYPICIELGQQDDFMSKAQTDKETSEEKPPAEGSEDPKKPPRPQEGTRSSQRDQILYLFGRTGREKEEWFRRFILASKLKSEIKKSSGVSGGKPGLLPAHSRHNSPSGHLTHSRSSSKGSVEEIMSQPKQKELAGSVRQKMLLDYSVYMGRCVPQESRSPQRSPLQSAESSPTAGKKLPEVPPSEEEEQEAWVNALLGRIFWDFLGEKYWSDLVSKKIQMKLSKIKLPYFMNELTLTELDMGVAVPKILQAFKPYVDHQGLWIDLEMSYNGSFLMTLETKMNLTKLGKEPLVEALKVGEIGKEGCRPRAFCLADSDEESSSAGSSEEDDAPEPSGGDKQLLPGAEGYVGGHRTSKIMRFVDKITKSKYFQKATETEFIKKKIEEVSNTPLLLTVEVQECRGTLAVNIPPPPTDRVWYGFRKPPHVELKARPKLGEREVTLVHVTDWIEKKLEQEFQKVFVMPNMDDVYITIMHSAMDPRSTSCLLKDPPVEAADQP
UniProt Q70IA6: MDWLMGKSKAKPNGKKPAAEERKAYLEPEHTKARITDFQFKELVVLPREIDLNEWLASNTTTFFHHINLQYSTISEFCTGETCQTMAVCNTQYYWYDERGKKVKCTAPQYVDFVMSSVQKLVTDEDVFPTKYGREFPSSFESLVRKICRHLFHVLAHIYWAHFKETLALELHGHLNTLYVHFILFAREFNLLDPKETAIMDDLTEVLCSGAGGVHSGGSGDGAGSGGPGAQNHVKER
UniProt P25787: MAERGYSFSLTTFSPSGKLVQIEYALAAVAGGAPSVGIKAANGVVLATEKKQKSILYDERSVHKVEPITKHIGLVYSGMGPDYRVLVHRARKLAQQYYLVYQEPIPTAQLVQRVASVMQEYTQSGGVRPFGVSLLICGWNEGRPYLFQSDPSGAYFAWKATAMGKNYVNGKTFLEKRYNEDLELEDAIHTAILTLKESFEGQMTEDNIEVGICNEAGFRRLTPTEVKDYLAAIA
UniProt Q9Y2T2: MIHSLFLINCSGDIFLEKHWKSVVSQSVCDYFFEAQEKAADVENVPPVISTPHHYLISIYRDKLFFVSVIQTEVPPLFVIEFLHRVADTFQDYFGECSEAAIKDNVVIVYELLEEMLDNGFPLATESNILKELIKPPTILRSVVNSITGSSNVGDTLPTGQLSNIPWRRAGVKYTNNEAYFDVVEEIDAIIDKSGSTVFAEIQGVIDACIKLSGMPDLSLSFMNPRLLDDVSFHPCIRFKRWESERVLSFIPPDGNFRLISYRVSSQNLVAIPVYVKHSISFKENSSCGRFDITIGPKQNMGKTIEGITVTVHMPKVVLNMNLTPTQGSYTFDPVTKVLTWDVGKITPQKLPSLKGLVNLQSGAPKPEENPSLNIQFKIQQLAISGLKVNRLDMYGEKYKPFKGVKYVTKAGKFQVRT
UniProt Q15005: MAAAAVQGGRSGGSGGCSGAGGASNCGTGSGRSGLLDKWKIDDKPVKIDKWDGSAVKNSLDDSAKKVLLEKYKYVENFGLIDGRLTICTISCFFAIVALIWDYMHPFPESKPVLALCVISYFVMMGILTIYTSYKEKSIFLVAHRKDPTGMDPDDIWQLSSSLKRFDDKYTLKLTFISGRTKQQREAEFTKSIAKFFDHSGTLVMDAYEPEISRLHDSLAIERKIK
UniProt Q9Y303: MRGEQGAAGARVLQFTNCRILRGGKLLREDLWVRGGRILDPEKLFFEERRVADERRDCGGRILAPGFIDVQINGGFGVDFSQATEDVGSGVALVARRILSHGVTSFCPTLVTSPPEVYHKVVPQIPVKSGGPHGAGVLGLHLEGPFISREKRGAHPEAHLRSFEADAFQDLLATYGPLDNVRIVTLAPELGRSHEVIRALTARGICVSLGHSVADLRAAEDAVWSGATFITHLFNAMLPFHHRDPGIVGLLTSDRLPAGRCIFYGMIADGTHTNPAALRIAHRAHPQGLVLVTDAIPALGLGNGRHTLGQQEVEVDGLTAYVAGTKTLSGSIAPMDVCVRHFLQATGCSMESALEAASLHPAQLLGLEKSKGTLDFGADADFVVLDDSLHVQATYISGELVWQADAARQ

What was measured:
[1] = compound: Nc1ncnc2c1ncn2[C@@H]1O[C@H](COP(=O)(O)OP(=O)(O)NP(=O)(O)O)[C@@H](O)[C@H]1O [adenylyl imidodiphosphate]; assay: NP40-soluble protein abundance relative to vehicle (solubility fold change) (ratio); higher = more soluble protein in presence of AMP-PNP
Procedure, shortened: (§1)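 Values are fold changes against the detergent-processed vehicle, based on vsn-normalised intensities. Jurkat crude lysate was treated at eight concentrations from 0.1 to 10 mM (10 min at room temperature, then 3 min at 37 °C), solubilised with 0.8% NP40 and benzonase, ultracentrifuged and analysed by TMT-labelled LC-MS/MS over three independent experiments.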

guanosine triphosphate = compound: Nc1nc2c(ncn2[C@@H]2O[C@H](COP(=O)(O)OP(=O)(O)OP(=O)(O)O)[C@@H](O)[C@H]2O)c(=O)[nH]1 [guanosine triphosphate]; assay: NP40-soluble protein abundance relative to vehicle (solubility fold change) (ratio); higher = more soluble protein in presence of GTP
Procedure, shortened: as §1

Target: A0A087WUK2|O14979 and related entries (UniProt O14979)
- NP40-soluble protein abundance ([1]; concentration: 1mM): 1.01 ± 0.094
- NP40-soluble protein abundance ([1]; concentration: 2mM): 1.04 ± 0.037
- NP40-soluble protein abundance ([1]; concentration: 4mM): 0.984 ± 0.06
- NP40-soluble protein abundance ([1]; concentration: 6mM): 0.972 ± 0.092
- NP40-soluble protein abundance ([1]; concentration: 8mM): 0.944 ± 0.075
- NP40-soluble protein abundance ([1]; concentration: 10mM): 0.998 ± 0.075

Target: A0A087WU64|A6NMQ1 and related entries (UniProt P09884)
- NP40-soluble protein abundance ([1]; concentration: 1mM): 0.963 ± 0.0094
- NP40-soluble protein abundance ([1]; concentration: 2mM): 0.948 ± 0.038
- NP40-soluble protein abundance ([1]; concentration: 4mM): 0.972 ± 0.011
- NP40-soluble protein abundance ([1]; concentration: 6mM): 0.95 ± 0.011
- NP40-soluble protein abundance ([1]; concentration: 8mM): 0.9226 ± 0.0051
- NP40-soluble protein abundance ([1]; concentration: 10mM): 0.935 ± 0.026

Target: UniProt Q9UNQ2
- NP40-soluble protein abundance (guanosine triphosphate; concentration: 0.1mM): 1.11 ± 0.093
- NP40-soluble protein abundance (guanosine triphosphate; concentration: 0.5mM): 1.13 ± 0.12
- NP40-soluble protein abundance (guanosine triphosphate; concentration: 1mM): 1.05 ± 0.16
- NP40-soluble protein abundance (guanosine triphosphate; concentration: 2mM): 1.22 ± 0.26
- NP40-soluble protein abundance (guanosine triphosphate; concentration: 4mM): 1.33 ± 0.3
- NP40-soluble protein abundance (guanosine triphosphate; concentration: 6mM): 1.31 ± 0.3
- NP40-soluble protein abundance (guanosine triphosphate; concentration: 8mM): 1.31 ± 0.26
- NP40-soluble protein abundance (guanosine triphosphate; concentration: 10mM): 1.44 ± 0.31

Target: A0A087WUH0|P28715 (UniProt P28715)
- NP40-soluble protein abundance ([1]; concentration: 1mM): 1.05 ± 0.015
- NP40-soluble protein abundance ([1]; concentration: 2mM): 1.11 ± 0.065
- NP40-soluble protein abundance ([1]; concentration: 4mM): 1.095 ± 0.0082
- NP40-soluble protein abundance ([1]; concentration: 6mM): 1.06 ± 0.028
- NP40-soluble protein abundance ([1]; concentration: 8mM): 1.03 ± 0.022
- NP40-soluble protein abundance ([1]; concentration: 10mM): 1.063 ± 0.0046

Target: A0A075B6H4|Q9H8E8 (UniProt Q9H8E8)
- NP40-soluble protein abundance ([1]; concentration: 1mM): 1.01 ± 0.015
- NP40-soluble protein abundance ([1]; concentration: 2mM): 1.05 ± 0.04
- NP40-soluble protein abundance ([1]; concentration: 4mM): 1.03 ± 0.094
- NP40-soluble protein abundance ([1]; concentration: 6mM): 1.14 ± 0.084
- NP40-soluble protein abundance ([1]; concentration: 8mM): 1.11 ± 0.03
- NP40-soluble protein abundance ([1]; concentration: 10mM): 1.13 ± 0.14

Target: A0A067XG54|Q8NB49 and related entries (UniProt Q8NB49)
- NP40-soluble protein abundance ([1]; concentration: 1mM): 0.999 ± 0.028
- NP40-soluble protein abundance ([1]; concentration: 2mM): 0.942 ± 0.057
- NP40-soluble protein abundance ([1]; concentration: 4mM): 0.986 ± 0.028
- NP40-soluble protein abundance ([1]; concentration: 6mM): 0.965 ± 0.022
- NP40-soluble protein abundance ([1]; concentration: 8mM): 0.976 ± 0.012
- NP40-soluble protein abundance ([1]; concentration: 10mM): 0.941 ± 0.036

Target: A0A024R7E8|K7EMV4 and related entries (UniProt P60002)
- NP40-soluble protein abundance ([1]; concentration: 1mM): 1.08 ± 0.027
- NP40-soluble protein abundance ([1]; concentration: 2mM): 1.14 ± 0.044
- NP40-soluble protein abundance ([1]; concentration: 4mM): 1.1 ± 0.024
- NP40-soluble protein abundance ([1]; concentration: 6mM): 1.14 ± 0.071
- NP40-soluble protein abundance ([1]; concentration: 8mM): 1.14 ± 0.066
- NP40-soluble protein abundance ([1]; concentration: 10mM): 1.2 ± 0.067

Target: A0A087WVA8|Q8IWB9 and related entries (UniProt Q8IWB9)
- NP40-soluble protein abundance ([1]; concentration: 1mM): 1.01 ± 0.061
- NP40-soluble protein abundance ([1]; concentration: 2mM): 1.01 ± 0.058
- NP40-soluble protein abundance ([1]; concentration: 4mM): 0.989 ± 0.053
- NP40-soluble protein abundance ([1]; concentration: 6mM): 0.98 ± 0.036
- NP40-soluble protein abundance ([1]; concentration: 8mM): 0.987 ± 0.048
- NP40-soluble protein abundance ([1]; concentration: 10mM): 0.991 ± 0.027

Target: A0A087WVS8|Q70IA6 and related entries (UniProt Q70IA6)
- NP40-soluble protein abundance ([1]; concentration: 1mM): 0.972 ± 0.026
- NP40-soluble protein abundance ([1]; concentration: 2mM): 0.925 ± 0.11
- NP40-soluble protein abundance ([1]; concentration: 4mM): 0.95 ± 0.063
- NP40-soluble protein abundance ([1]; concentration: 6mM): 0.946 ± 0.015
- NP40-soluble protein abundance ([1]; concentration: 8mM): 0.959 ± 0.026
- NP40-soluble protein abundance ([1]; concentration: 10mM): 0.9181 ± 0.007

Target: A0A024RA52|P25787 (UniProt P25787)
- NP40-soluble protein abundance ([1]; concentration: 1mM): 0.944 ± 0.033
- NP40-soluble protein abundance ([1]; concentration: 2mM): 0.922 ± 0.035
- NP40-soluble protein abundance ([1]; concentration: 4mM): 0.868 ± 0.038
- NP40-soluble protein abundance ([1]; concentration: 6mM): 0.914 ± 0.062
- NP40-soluble protein abundance ([1]; concentration: 8mM): 0.893 ± 0.072
- NP40-soluble protein abundance ([1]; concentration: 10mM): 0.903 ± 0.11

Target: AP3M1 (UniProt Q9Y2T2)
- NP40-soluble protein abundance (guanosine triphosphate; concentration: 0.1mM): 0.967 ± 0.058
- NP40-soluble protein abundance (guanosine triphosphate; concentration: 0.5mM): 1.02 ± 0.11
- NP40-soluble protein abundance (guanosine triphosphate; concentration: 1mM): 1.04 ± 0.077
- NP40-soluble protein abundance (guanosine triphosphate; concentration: 2mM): 0.993 ± 0.046
- NP40-soluble protein abundance (guanosine triphosphate; concentration: 4mM): 1 ± 0.093
- NP40-soluble protein abundance (guanosine triphosphate; concentration: 6mM): 0.974 ± 0.052
- NP40-soluble protein abundance (guanosine triphosphate; concentration: 8mM): 0.895 ± 0.026
- NP40-soluble protein abundance (guanosine triphosphate; concentration: 10mM): 0.885 ± 0.087

Target: A0A087WU62|A0A087X2D5|A0A0G2JMS5|Q9BRJ2 (UniProt Q9BRJ2)
- NP40-soluble protein abundance ([1]; concentration: 1mM): 0.998 ± 0.11
- NP40-soluble protein abundance ([1]; concentration: 2mM): 0.971 ± 0.061
- NP40-soluble protein abundance ([1]; concentration: 4mM): 0.978 ± 0.091
- NP40-soluble protein abundance ([1]; concentration: 6mM): 0.951 ± 0.15
- NP40-soluble protein abundance ([1]; concentration: 8mM): 0.92 ± 0.095
- NP40-soluble protein abundance ([1]; concentration: 10mM): 0.933 ± 0.13

Target: A0A024R4M0|P46781 (UniProt P46781)
- NP40-soluble protein abundance ([1]; concentration: 1mM): 0.938 ± 0.019
- NP40-soluble protein abundance ([1]; concentration: 2mM): 0.821 ± 0.072
- NP40-soluble protein abundance ([1]; concentration: 4mM): 0.891 ± 0.1
- NP40-soluble protein abundance ([1]; concentration: 6mM): 0.855 ± 0.031
- NP40-soluble protein abundance ([1]; concentration: 8mM): 0.848 ± 0.084
- NP40-soluble protein abundance ([1]; concentration: 10mM): 0.874 ± 0.15

Target: A0A087WUC6|E9PI68 and related entries (UniProt Q15005)
- NP40-soluble protein abundance ([1]; concentration: 1mM): 1.01 ± 0.018
- NP40-soluble protein abundance ([1]; concentration: 2mM): 0.962 ± 0.012
- NP40-soluble protein abundance ([1]; concentration: 4mM): 1 ± 0.035
- NP40-soluble protein abundance ([1]; concentration: 6mM): 1.02 ± 0.058
- NP40-soluble protein abundance ([1]; concentration: 8mM): 1.02 ± 0.036
- NP40-soluble protein abundance ([1]; concentration: 10mM): 0.981 ± 0.058

Target: UniProt Q9Y303 and related entries
- NP40-soluble protein abundance (guanosine triphosphate; concentration: 0.1mM): 0.998 ± 0.018
- NP40-soluble protein abundance (guanosine triphosphate; concentration: 0.5mM): 0.978 ± 0.079
- NP40-soluble protein abundance (guanosine triphosphate; concentration: 1mM): 0.969 ± 0.047
- NP40-soluble protein abundance (guanosine triphosphate; concentration: 2mM): 0.959 ± 0.094
- NP40-soluble protein abundance (guanosine triphosphate; concentration: 4mM): 0.898 ± 0.087
- NP40-soluble protein abundance (guanosine triphosphate; concentration: 6mM): 0.92 ± 0.019
- NP40-soluble protein abundance (guanosine triphosphate; concentration: 8mM): 0.826 ± 0.051
- NP40-soluble protein abundance (guanosine triphosphate; concentration: 10mM): 0.846 ± 0.11

Target: A0A087WVP1|Q14517 (UniProt Q14517)
- NP40-soluble protein abundance ([1]; concentration: 1mM): 0.993 ± 0.066
- NP40-soluble protein abundance ([1]; concentration: 2mM): 1.06 ± 0.019
- NP40-soluble protein abundance ([1]; concentration: 4mM): 1.03 ± 0.056
- NP40-soluble protein abundance ([1]; concentration: 6mM): 1 ± 0.096
- NP40-soluble protein abundance ([1]; concentration: 8mM): 0.959 ± 0.05
- NP40-soluble protein abundance ([1]; concentration: 10mM): 1.01 ± 0.076
